This note sets out measurements from publication PMC7733513.

Chains of the proteins cited; added tags and fusions are not shown. Lines headed by an entry give the natural chain unless they say otherwise; changes in a name come on top. Residues count along the entry.
UniProt P14618: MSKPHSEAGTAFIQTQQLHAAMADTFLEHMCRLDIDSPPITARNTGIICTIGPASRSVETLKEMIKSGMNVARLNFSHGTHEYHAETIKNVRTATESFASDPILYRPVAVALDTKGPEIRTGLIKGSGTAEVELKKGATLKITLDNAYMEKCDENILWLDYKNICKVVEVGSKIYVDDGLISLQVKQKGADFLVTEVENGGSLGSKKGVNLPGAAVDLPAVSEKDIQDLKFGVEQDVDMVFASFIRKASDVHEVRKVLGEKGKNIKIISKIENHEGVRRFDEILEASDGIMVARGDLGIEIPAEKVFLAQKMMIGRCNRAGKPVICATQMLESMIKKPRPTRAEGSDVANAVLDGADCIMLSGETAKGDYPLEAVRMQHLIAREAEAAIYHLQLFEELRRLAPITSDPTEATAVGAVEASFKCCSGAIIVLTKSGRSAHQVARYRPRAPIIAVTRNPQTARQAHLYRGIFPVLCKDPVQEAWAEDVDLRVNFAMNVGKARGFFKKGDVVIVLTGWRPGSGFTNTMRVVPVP
UniProt P04279: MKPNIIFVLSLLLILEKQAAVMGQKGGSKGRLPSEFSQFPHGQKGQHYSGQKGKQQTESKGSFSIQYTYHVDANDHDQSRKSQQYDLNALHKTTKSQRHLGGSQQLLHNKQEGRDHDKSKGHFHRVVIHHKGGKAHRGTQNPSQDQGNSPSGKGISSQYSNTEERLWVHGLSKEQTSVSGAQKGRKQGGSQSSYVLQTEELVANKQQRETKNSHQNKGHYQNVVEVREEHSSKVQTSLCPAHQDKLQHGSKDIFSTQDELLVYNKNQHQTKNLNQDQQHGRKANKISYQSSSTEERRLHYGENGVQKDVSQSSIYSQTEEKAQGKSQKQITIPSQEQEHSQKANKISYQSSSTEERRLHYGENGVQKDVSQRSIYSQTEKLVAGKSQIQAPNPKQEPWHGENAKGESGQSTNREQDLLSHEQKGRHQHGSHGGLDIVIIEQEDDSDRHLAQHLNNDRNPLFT
GST-SEMG1 (truncated SEMG1 lacking the signal peptide, 23-461 a.a.): residues 23-461 of P04279
3×Flag-SEMG1 (full-length SEMG1): residues 24-462 of P04279

In test [1] the target is 3×Flag-tagged PKM2 (full length) (human) (UniProt P14618). Briefly: co-IP; reciprocal: H520 cells transiently transfected with 3×Flag-LDHA, 3×Flag-PKM2 or empty vector; anti-Flag M2 agarose 48 h after transfection; blot of endogenous SEMG1 and SEMG2.
Test [2] has as its target 3×Flag-SEMG1 (full-length SEMG1) (human) (UniProt P04279). Briefly: co-IP; HEK293T transfected with 3×Flag-SEMG1 or 3×Flag-SEMG2 (empty vector as control); anti-Flag M2 agarose 4 h, 50 mM Tris-HCl pH 7.4, 150 mM NaCl, 20 mM EDTA, 0.1% Triton X-100; washed with TBS; western blot.
For test [3], the target named is T1, 3×Flag-SEMG2 (full-length SEMG2) (human) (UniProt Q02383).
T1 sequence: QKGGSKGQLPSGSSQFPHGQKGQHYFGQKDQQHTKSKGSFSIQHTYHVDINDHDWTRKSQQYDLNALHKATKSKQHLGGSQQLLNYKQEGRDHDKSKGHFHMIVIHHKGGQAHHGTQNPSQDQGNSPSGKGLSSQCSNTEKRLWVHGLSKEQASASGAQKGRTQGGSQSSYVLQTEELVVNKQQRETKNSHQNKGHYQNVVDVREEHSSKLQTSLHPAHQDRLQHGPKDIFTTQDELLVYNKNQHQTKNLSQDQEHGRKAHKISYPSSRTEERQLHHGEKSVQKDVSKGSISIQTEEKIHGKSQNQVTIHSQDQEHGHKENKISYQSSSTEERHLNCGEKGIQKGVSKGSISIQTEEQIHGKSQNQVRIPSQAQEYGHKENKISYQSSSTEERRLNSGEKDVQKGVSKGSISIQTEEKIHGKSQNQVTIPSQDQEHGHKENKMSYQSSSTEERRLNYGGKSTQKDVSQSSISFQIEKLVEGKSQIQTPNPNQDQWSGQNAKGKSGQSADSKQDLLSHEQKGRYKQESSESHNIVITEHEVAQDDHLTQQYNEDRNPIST
The test is described as above.

Test [4] addresses GST-SEMG1 (truncated SEMG1 lacking the signal peptide, 23-461 a.a.) (human) (UniProt P04279). Briefly: pull-down; 50 µg GST-SEMG1 or GST-SEMG2 (GST as control) incubated 3 h with MCF7 cell extract pre-incubated with GST; western blot with antibodies against LDHA, PKM2 and IDH2; only the target purified.
In test [5] the target is 3×Flag-SEMG1 (full-length SEMG1) (human) (UniProt P04279). Briefly: co-IP; HEK293T transfected with 3×Flag-SEMG1 or 3×Flag-SEMG2 (empty vector as control); anti-Flag M2 agarose 4 h, 50 mM Tris-HCl pH 7.4, 150 mM NaCl, 20 mM EDTA, 0.1% Triton X-100; washed with TBS; western blot. The source holds these as a separate data set.
Test [6] addresses T1, 3×Flag-SEMG2 (full-length SEMG2) (human). Described as above. The source holds these as a separate data set.
Test [7] concerns the target GST-SEMG1 (truncated SEMG1 lacking the signal peptide, 23-461 a.a.) (human) (UniProt P04279). Briefly: pull-down; 50 µg GST-SEMG1 or GST-SEMG2 (GST as control) incubated 3 h with MCF7 cell extract pre-incubated with GST; western blot with antibodies against LDHA, PKM2 and IDH2; only the target purified. The source holds these as a separate data set.

Read-outs that look alike come from different tables or passages of the source. No constants are given. Whether binding was seen depends on the method and setting. Binding seen in cells or lysates may run through a third protein. Some binding calls cover weakened binding; strength is not graded here. For some assays here: Sequences can lack the tags named with a protein.

For “endogenous SEMG1 in H520 cells (from UniProt P04279-1 24-462)”, the binding result in test [1] was “binds”.
Consider “PKM2, endogenous in HEK293T cells (from UniProt P14618-1 1-531) (enzyme)”, for which the binding entry in test [2] and in test [3] was “binds” in each case.
For the molecule “pyruvate kinase M2 (PKM2), endogenous in MCF7 cell extract (from UniProt P14618-1 1-531) (enzyme)”, the binding result in test [4] was “binds”.

B1: IDH2, endogenous in HEK293T cells (enzyme, UniProt P48735 40-452)
chain: ADKRIKVAKPVVEMDGDEMTRIIWQFIKEKLILPHVDIQLKYFDLGLPNRDQTDDQVTIDSALATQKYSVAVKCATITPDEARVEEFKLKKMWKSPNGTIRNILGGTVFREPIICKNIPRLVPGWTKPITIGRHAHGDQYKATDFVADRAGTFKMVFTPKDGSGVKEWEVYNFPAGGVGMGMYNTDESISGFAHSCFQYAIQKKWPLYMSTKNTILKAYDGRFKDIFQEIFDKHYKTDFDKNKIWYEHRLIDDMVAQVLKSSGGFVWACKNYDGDVQSDILAQGFGSLGLMTSVLVCPDGKTIEAEAAHGTVTRHYREHQKGRPTSTNPIASIFAWTRGLEHRGKLDGNQDLIRFAQMLEKVCVETVESGAMTKDLAGCIHGLSNVKLNEHFLNTTDFLDTIKSNLDRALGRQ
For B1, the binding result in test [5] and in test [6] was “binds” throughout.

B2: IDH2, endogenous in MCF7 cell extract (enzyme, UniProt P48735 40-452)
chain: ADKRIKVAKPVVEMDGDEMTRIIWQFIKEKLILPHVDIQLKYFDLGLPNRDQTDDQVTIDSALATQKYSVAVKCATITPDEARVEEFKLKKMWKSPNGTIRNILGGTVFREPIICKNIPRLVPGWTKPITIGRHAHGDQYKATDFVADRAGTFKMVFTPKDGSGVKEWEVYNFPAGGVGMGMYNTDESISGFAHSCFQYAIQKKWPLYMSTKNTILKAYDGRFKDIFQEIFDKHYKTDFDKNKIWYEHRLIDDMVAQVLKSSGGFVWACKNYDGDVQSDILAQGFGSLGLMTSVLVCPDGKTIEAEAAHGTVTRHYREHQKGRPTSTNPIASIFAWTRGLEHRGKLDGNQDLIRFAQMLEKVCVETVESGAMTKDLAGCIHGLSNVKLNEHFLNTTDFLDTIKSNLDRALGRQ
On to B2, for which the binding result in test [7] is given as “binds”.

B3: endogenous SEMG2 in H520 cells (protein, UniProt Q02383 24-582)
chain: QKGGSKGQLPSGSSQFPHGQKGQHYFGQKDQQHTKSKGSFSIQHTYHVDINDHDWTRKSQQYDLNALHKATKSKQHLGGSQQLLNYKQEGRDHDKSKGHFHMIVIHHKGGQAHHGTQNPSQDQGNSPSGKGLSSQCSNTEKRLWVHGLSKEQASASGAQKGRTQGGSQSSYVLQTEELVVNKQQRETKNSHQNKGHYQNVVDVREEHSSKLQTSLHPAHQDRLQHGPKDIFTTQDELLVYNKNQHQTKNLSQDQEHGRKAHKISYPSSRTEERQLHHGEKSVQKDVSKGSISIQTEEKIHGKSQNQVTIHSQDQEHGHKENKISYQSSSTEERHLNCGEKGIQKGVSKGSISIQTEEQIHGKSQNQVRIPSQAQEYGHKENKISYQSSSTEERRLNSGEKDVQKGVSKGSISIQTEEKIHGKSQNQVTIPSQDQEHGHKENKMSYQSSSTEERRLNYGGKSTQKDVSQSSISFQIEKLVEGKSQIQTPNPNQDQWSGQNAKGKSGQSADSKQDLLSHEQKGRYKQESSESHNIVITEHEVAQDDHLTQQYNEDRNPIST
In the case of B3, the binding entry in test [1] was “binds”.
